# At least one compound was matched to its structure with a doubt left.
# Tested on: Gram-positive and Gram-negative bacteria (reference strains and clinical isolates)
# Test: Antibacterial activity overall (MIC determination)
# Assay type: cell-based
# Conditions: summary of MIC results
# Text: According to the joint recommendations: • of the “Comite de l′Antibiogramme de la Société Française de Microbiologie” (Antibiogram Committee of the French Society of Microbiology) (CA-SFM) [CA-SFM. Communique 2007 (Edition of January 2007). http://www.sfm.asso.fr] and, • of the “Clinical and Laboratory Standards Institute” (CLSI, formerly “National Committee for Clinical Laboratory Standards” or NCCLS) [NCCLS. 2003. Methods for dilution antimicrobial susceptibility tests for bacteria that grow aerobically; approved standard M7-A6, 6th ed. National Committee for Clinical Laboratory Standards, Wayne, Pa., USA.], five reference bacterial strains were used for the study: Escherichia coli ATCC 25922, Pseudomonas aeruginosa ATCC 27853, Staphylococcus aureus ATCC 25923 & ATCC 29213 and Enterococcus faecalis ATCC 29212. […]
# The minimum inhibitory concentrations (MIC) were determined by the standardized method of microdilution in liquid medium (96-well microplate, U-shaped bottom, Greiner), in Mueller-Hinton broth, with a final inoculum of 10^5-10^6 CFU/mL, depending on the bacterial species, in accordance with the recommendations of the CLSI. […]
row,SMILES,antibacterial activity (in words)
1,"N=C(N)c1ccc(OCCCCCCOc2ccc(C(=N)N)cc2)cc1 [HX, hexamidine]",broad-spectrum antibacterial activity
2,"N=C(N)NCCc1ccc(OCCCCCCCCCCOc2ccc(CCNC(=N)N)cc2)cc1 [compound 10, 1,10-bis(4-(2-guanidinoethyl)phenoxy)decane]",very good activities on the 5 reference strains tested
